Results deposited as PubChem BioAssay AID1259308 (NCATS, 2017)

Assay: 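Genes whose loss raises luciferase production in HEK293 cells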 (primary screen)
Cells: human HEK293 embryonic kidney cells stably expressing firefly luciferase (HEK-CMV-Luc2-Hygro)
Knock-down reagent: single siRNA against human genes, 0.8 pmol siRNA per well
Duration: 72 h
Measured: 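Reporter luminescence and viable-cell signal on separate replicate plates, given as percent of non-targeting control and median/MAD z-scores, plus per-cell luciferase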
Direction: total luciferase, z-score and total luciferase, % of control: higher = more reporter protein produced
Hit rule: 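An siRNA counts as active if its total luciferase robust z-score exceeds 3; genes with two or more such siRNAs out of three were retested with fresh siRNAs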
Calls: active = raised luciferase; inactive = no rise
Shown is one part, drawn at random, of about 59,000 reagents tested. Over the whole deposit, about 1,510 (2.6%) were called active. 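Calls use total luciferase alone and ignore viability, so some active siRNAs may act by altering cell number.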 Unmarked entries are inactive. The numbers tell different reagents against one gene apart. Not all columns of the deposit are shown.

gene knocked down	reagent no.	total luciferase, z-score	total luciferase, % of control
AGAP1	1	0.565	93.1
AGAP1	2	0.476	91.3
AGAP1	3	0.893	99.7
HTR3E	1	-1.17	58.5
HTR3E	2	-0.853	64.9
HTR3E	3	0.0583	83
LRIF1	1	-2.22	37.8
LRIF1	2	1.18	105
LRIF1	3	1.88	119
PGM3	1	-0.211	77.7
PGM3	2	-0.193	78.1
PGM3	3	0.557	93
ZDHHC5	1	-1.68	48.5
ZDHHC5	2	-1.97	42.8
ZDHHC5	3	0.45	90.8
ATP10D	1	-0.0725	80.4
ATP10D	2	-0.537	71.2
ATP10D	3	-0.0345	81.2
MPPED2	1	0.281	87.5
MPPED2	2	-2.72	27.8
MPPED2	3	-1.33	55.4
CD300LF	1	-0.736	67.2
CD300LF	2	0.765	97.1
CD300LF	3	0.301	87.9
ITGA2	1	-0.397	74
ITGA2	2	0.517	92.2
ITGA2	3	3.66 (active)	155
ACTL9	1	1.42	110
ACTL9	2	0.61	94
ACTL9	3	0.224	86.3
ATG2B	1	-0.714	67.7
ATG2B	2	-2.92	23.7
ATG2B	3	0.781	97.4
PCP2	1	0.201	85.9
PCP2	2	-0.843	65.1
PCP2	3	0.239	86.6
CELSR1	1	1.52	112
CELSR1	2	-0.484	72.3
CELSR1	3	-1.07	60.6
CCP110	1	-1.13	59.4
CCP110	2	-0.287	76.2
CCP110	3	1.99	122
EP400	1	3.09 (active)	143
EP400	2	0.922	100
EP400	3	2.57	133
PAFAH1B2P2	1	1.73	116
PAFAH1B2P2	2	-0.0563	80.8
PAFAH1B2P2	3	4.22 (active)	166
CITED4	1	0.758	97
CITED4	2	1.99	121
CITED4	3	-0.381	74.3
CLDN20	1	-0.697	68
CLDN20	2	1.89	119
CLDN20	3	-0.453	72.9
ATP6AP2	1	0.242	86.7
ATP6AP2	2	0.865	99.1
ATP6AP2	3	-0.736	67.3
KASH5	1	-1.42	53.6
KASH5	2	-1.81	45.9
KASH5	3	-2.68	28.6
DENND3	1	1.07	103
DENND3	2	-1.14	59.3
DENND3	3	0.741	96.6
ZPR1	1	-0.398	74
ZPR1	2	4 (active)	161
ZPR1	3	0.259	87
SRCAP-AS1	1	0.546	92.7
SRCAP-AS1	2	4.08 (active)	163
SRCAP-AS1	3	0.047	82.8
NPTN	1	1.15	105
NPTN	2	0.481	91.5
NPTN	3	0.0731	83.3
FYCO1	1	0.767	97.1
FYCO1	2	1.41	110
FYCO1	3	0.253	86.9

A stretch from the list above, for reference:
gene knocked down	reagent no.	total luciferase, z-score	total luciferase, % of control
ATG2B	2	-2.92	23.7
ATG2B	3	0.781	97.4
PCP2	1	0.201	85.9
PCP2	2	-0.843	65.1
PCP2	3	0.239	86.6
CELSR1	1	1.52	112
CELSR1	2	-0.484	72.3
CELSR1	3	-1.07	60.6
CCP110	1	-1.13	59.4
CCP110	2	-0.287	76.2
CCP110	3	1.99	122
